# Primary screen of a compound library

The filed quantity is “Percent Effect” (%). The record does not define 0% and 100%; most values in the screen are far below 50% and negative numbers occur (in some assays of this library far below -100). Compounds were drawn at random from those tested, without regard to their results. Two or more numbers in one place are separate tests of the same structure; such repeats can differ widely.

Mtb glucose medium: 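Phenotypic screen: M. tuberculosis growth, glucose 7H9 medium, 3 days; the read-out is not stated. Tested at 50 µM. Higher reads as more growth inhibition (inferred: compounds with an IC50 in retests scored well above the rest). Size under these conditions: about 69,000 compounds, about 760 of them at 50% or above in at least one test.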
Mtb cholesterol medium: 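Phenotypic screen: M. tuberculosis growth, cholesterol and DPPC medium, 4 days; the read-out is not stated. Tested at 50 µM. Direction is inferred from retests: higher values go with more growth inhibition. Of about 69,000 compounds tested this way, about 370 (0.54%) reached 50% or more in at least one test.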

{"smiles": "O=C(NCCCN1CCOCC1)c1cc(-c2ccc3c(c2)CCO3)n[nH]1", "Mtb glucose medium": 23.68, "Mtb cholesterol medium": 20.91}
{"smiles": "O=C(N[C@@H]1CC[C@@H](n2ccnc2)[C@@H]1O)c1cc2c(s1)CCC2", "Mtb glucose medium": 11.63, "Mtb cholesterol medium": -9.655}
{"smiles": "CCCSc1ncc(CN2CCN(C)C(=O)C2C)cn1", "stereo": "configuration not stated", "Mtb glucose medium": -28.17, "Mtb cholesterol medium": -23.9}
{"smiles": "C[S+]([O-])c1ccc(NC(=O)CC2=CCCCC2)cc1", "stereo": "configuration not stated", "Mtb glucose medium": "5.388 and -0.3809", "Mtb cholesterol medium": "7.89 and 4.175"}
{"smiles": "CCC(=O)N1CCc2[nH]cnc2C12CCN(C1CCOCC1)CC2", "Mtb glucose medium": -6.71, "Mtb cholesterol medium": -4.743}
{"smiles": "COCc1nc2nc(O)c3c(n2n1)NC(=O)CC3c1ccccc1Cl", "stereo": "configuration not stated", "Mtb glucose medium": -36.61, "Mtb cholesterol medium": -13.63}
{"smiles": "[H][C@@]12CCN(C(=O)c3cnccn3)C[C@@]1([H])O[C@@H](C)C2", "Mtb glucose medium": -22.99, "Mtb cholesterol medium": -38.41}
{"smiles": "COCCCN(Cc1ccccn1)S(=O)(=O)N(C)C", "Mtb glucose medium": "-9.248 and -29.13", "Mtb cholesterol medium": -14.73}
{"smiles": "CCN1CCc2cc(-c3cncn3CCNC3CCS(=O)(=O)C3)ccc21.Cl", "stereo": "configuration not stated", "Mtb glucose medium": -14.93, "Mtb cholesterol medium": -6.624}
{"smiles": "O=S(=O)(C1CC1)N1CCn2c(Cn3cccn3)cnc2C1", "Mtb glucose medium": "17.11 and -1.623", "Mtb cholesterol medium": 12.38}
{"smiles": "Nc1nccnc1C1CN(C(=O)c2cnccn2)CCO1", "stereo": "configuration not stated", "Mtb glucose medium": 9.745, "Mtb cholesterol medium": 8.218}
{"smiles": "CCCC(=O)N1CCOC2(COCCN(CC(=O)NC)C2)C1.O=C(O)C(F)(F)F", "stereo": "configuration not stated", "Mtb glucose medium": 19.37, "Mtb cholesterol medium": 2.869}
{"smiles": "Cc1cccc(S(=O)(=O)N2Cc3c(CN(C)C)nn(C)c3C2)c1", "Mtb glucose medium": "2.13 and -32.87", "Mtb cholesterol medium": "-17.3 and -0.3071"}
{"smiles": "O=C(O)C(F)(F)F.O=C(O)C(F)(F)F.[H][C@@]12OCCN(Cc3nccs3)[C@@]1([H])CC[C@@H]2OCc1ccccn1", "Mtb glucose medium": "1.886 and 5.587", "Mtb cholesterol medium": -3.183}
{"smiles": "Cc1oc(-c2ccco2)nc1CC(=O)N1CCC(CCO)C1", "stereo": "configuration not stated", "Mtb glucose medium": -8.648, "Mtb cholesterol medium": 2.895}
{"smiles": "O=C(O)C(F)(F)F.[H][C@@]12CCN(S(C)(=O)=O)[C@]1([H])CC[C@@H](C(=O)NCCc1ccncc1)O2", "Mtb glucose medium": -38.42, "Mtb cholesterol medium": -13.11}
{"smiles": "CCc1nc(C2CCCN(c3nccc(C)n3)C2)no1", "stereo": "configuration not stated", "Mtb glucose medium": 29.6, "Mtb cholesterol medium": 3.222}
{"smiles": "Cc1nnc(SC2CCN(c3sccc3C#N)C2=O)[nH]1", "stereo": "configuration not stated", "Mtb glucose medium": -26.44, "Mtb cholesterol medium": -19.07}
{"smiles": "Cn1ccnc1CCC1CCCCN1Cc1cnc(N2CCCC2)nc1", "stereo": "configuration not stated", "Mtb glucose medium": 7.745, "Mtb cholesterol medium": -6.771}
{"smiles": "CC(C)NC(=O)c1ccc2nnc(C3CCN(S(C)(=O)=O)C3)n2c1", "stereo": "configuration not stated", "Mtb glucose medium": 5.163, "Mtb cholesterol medium": -2.545}
{"smiles": "O=C(O)CSC1CCc2ccccc2NC1=O", "stereo": "configuration not stated", "Mtb glucose medium": -25.6, "Mtb cholesterol medium": -38.95}
{"smiles": "Cn1cc(C(=O)Nc2ccc3c(c2)CN(C(=O)c2ccco2)CC3)nn1", "Mtb glucose medium": 56.22, "Mtb cholesterol medium": 16.62}
{"smiles": "CNC(=O)C(NC(=O)c1c(C)noc1C)c1ccc(F)c(F)c1", "stereo": "configuration not stated", "Mtb glucose medium": "-40.78 and -7.901", "Mtb cholesterol medium": 0.3313}
{"smiles": "O=C(O)C(F)(F)F.[H][C@@]12CN(c3ccc(C)nn3)C[C@H](C(=O)NCC3CC3)[C@]1([H])CCO2", "Mtb glucose medium": 16.85, "Mtb cholesterol medium": -12.2}
{"smiles": "CCCn1cc(C(=O)NC(CC(=O)O)c2ccco2)c(C)n1", "stereo": "configuration not stated", "Mtb glucose medium": 34.34, "Mtb cholesterol medium": 4.744}
{"smiles": "CCSc1cc(C(=O)NCc2ccccc2O)ccn1", "Mtb glucose medium": "43.62 and 32.68", "Mtb cholesterol medium": 35.92}
{"smiles": "Cc1ccccc1-c1noc(CN2CCC(N3CCNC3=O)CC2)n1", "Mtb glucose medium": 2.412, "Mtb cholesterol medium": -6.938}
{"smiles": "COc1cccc(SCC(=O)N2CCC(N3CCCC3=O)CC2)c1", "Mtb glucose medium": 11.3, "Mtb cholesterol medium": -6.697}
{"smiles": "CCOc1ccc(Cl)c(C(=O)N2CCCN(CC(N)=O)CC2)n1", "Mtb glucose medium": 7.636, "Mtb cholesterol medium": -11.73}

Some entries from above, unchanged:

* Cc1nnc(SC2CCN(c3sccc3C#N)C2=O)[nH]1 (configuration not stated) : Mtb glucose medium: -26.44%; Mtb cholesterol medium: -19.07%
* CCOc1ccc(Cl)c(C(=O)N2CCCN(CC(N)=O)CC2)n1 : Mtb glucose medium: 7.636%; Mtb cholesterol medium: -11.73%

Measurements from “University of Dundee, Small-Polar-MMV Screening Library” (2021), ChEMBL document CHEMBL3988442.